Reference: patent publication US12692478B2, “Populations of enriched regulatory T cells and methods for producing same” (Cellenkos Inc., priority 2021, dated 2026)
For at least one compound, name, drawing or mass did not settle the structure.

What was measured:
[1] = test system: graft versus host disease (GVHD)
Experimental: FIG. 33 depicts a schematic for treatment of a xenogeneic mouse graft versus host disease (GVHD) model with a ruxolitinib and activated Treg cells regimen. PBMC=peripheral blood mononuclear cells.
A xenogeneic mouse graft versus host disease (GVHD) model was treated with a ruxolitinib and activated CB Treg cells regimen, as depicted in FIG. 33. NSG mice underwent sublethal irradiation on day −1 followed by injection of 1×10^7 donor peripheral blood (PB) mononuclear cells (MNCs) on day 0. Oral ruxolitinib at 1 mg daily was fed continuously to the mice in the presence or absence of 1×10^7 CB Treg cells, tagged with CellTrace™ Violet dye (ThermoFisher), administered on days +4, +7, +11, +18. Mice were followed every other day for weight, GVHD score and survival. Serial blood draws were performed to analyze for cell compartment and cytokine assays.

Tcon cells = test: Suppression assay of thawed cryopreserved CB Treg cells with ruxolitinib; format: cell-based, human; details: 0.05 μM ruxolitinib, 96 hours of co-culture (FIG. 31)
SLE-PBMC = test: IFN-gamma release by pathogenic lupus cells (SLE-PBMC); format: cell-based, human; details: Day 6 (FIG. 32)
Text: FIG. 32 is a bar graph depicting the amount of interferon (IFN)—gamma released by pathogenic lupus cells in the presence or absence of combinations of (1) activated Treg cells; (2) ruxolitinib; and/or (3) camptothecin. Rux=ruxolitinib. SLE-PBMC=peripheral blood mononuclear cells derived from subjects with systemic lupus erythematosus. D6=Day 6.

N#CC[C@H](C1CCCC1)n1cc(-c2ncnc3[nH]ccc23)cn1 [ruxolitinib]
number of human cells (human CD45) ([1]; FIG. 35A): decreased | level of FGF-12 ([1]; FIG. 37D): reduced equally | level of Macrophage-Derived Chemokine (MDC) ([1]; FIG. 37E): reduced equally | suppressive function of thawed cryopreserved CB Treg cells (Tcon cells): restored the suppressive function | level of IFN-γ released from SLE-PBMC (SLE-PBMC): decreased
